Results are given in words; binding and its absence hold for the method and conditions named. Some entries that bind do so weakly or less than the wild type.
Molecular target: EspO of Citrobacter rodentium ICC180, two-hybrid bait (pGBKT7) (Citrobacter rodentium ICC180) (UniProt D2TI12)
Assay: two-hybrid

Protein sequences, listed by entry. Tags and fused reporters are not part of them.
UniProt O00165: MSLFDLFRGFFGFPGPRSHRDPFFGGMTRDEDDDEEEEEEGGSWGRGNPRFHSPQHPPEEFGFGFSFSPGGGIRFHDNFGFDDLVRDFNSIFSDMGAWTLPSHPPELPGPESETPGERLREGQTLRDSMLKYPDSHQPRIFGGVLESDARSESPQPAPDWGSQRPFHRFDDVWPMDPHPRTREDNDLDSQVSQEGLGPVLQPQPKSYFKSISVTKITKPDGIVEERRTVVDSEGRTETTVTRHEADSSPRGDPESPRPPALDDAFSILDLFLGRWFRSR

HAX-1 full length, two-hybrid prey (pGADT7-HAX-1) (from UniProt O00165 1-279)
binding: binds
